AC50 and cell number change data for 62 compounds are collected here from PubChem BioAssay AID2685 (National Center for Advancing Translational Sciences (NCATS), 2010).

Some of the results follow. Further columns of the screen follow, without active or inactive calls. Compounds called inactive in the main read-out are mostly missing here. Potencies come from curve fits of mixed quality, noted in brackets.

The test is described as follows: qHTS Assay for Lipid Storage Modulators in Drosophila S3 Cells.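 For cell number change: cells counted by Cell Tracker Red CMTPX staining in the red channel.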 The settings on record: BODIPY lipid droplet fluorescence, 18-24 h; for cell number change: measured here: cell count max response, cells fed with added oleic acid. A digest of the protocol: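 Drosophila S3 cells loaded with oleic acid (400 uM, as added) and compounds at several concentrations; lipid droplets imaged by 488-nm laser-scanning cytometry, 500–530 nm intensity and object ratio to cell channel. Percent activity normalized to 20 uM Triacsin C.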
For orientation: qHTS replaces the single test concentration by a dilution series.

Setting [1] is: measured here: cell number channel AC50, cells fed with added oleic acid.
Setting [2] is: measured here: lipid fluorescence (Fed channel) AC50, cells fed with added oleic acid.

A word on the AC50: it is the midpoint of the concentration-response curve, whichever way the signal moves. The low end stands for activity at low concentration, the high end for activity only at high concentration. For `N#CCSc1nc2ccc(N3CCOCC3)cc2c(=O)n1CCc1ccccc1`, the AC50 under setting [1] is 0.411 µM [rising, partial curve, poor fit] and the half-maximal activity concentration (AC50) under setting [2] is 29.1 µM [rising, partial curve, poor fit]. Consider `COc1cc(C2c3c(oc4ccccc4c3=O)C(=O)N2c2ccc(C)cn2)ccc1O` (stereo not given), for which the cell number change is -1.28%. For the same compound, under setting [2], the AC50 was 2.91 µM [rising, full curve, poor fit]. Consider `Nc1n[nH]c(C2CC2)c1N=Nc1ccc(Cl)cc1`, for which the cell number change amounted to 7.79%. The AC50 under setting [1] is 6.51 µM [falling, single point].

Turning to `CCc1cc(=O)oc2cc(C)cc(OCC(=O)NCC(O)c3ccccc3)c12` (stereo not given), the cell number change is -2.09%. Also, under setting [2], the AC50 is 18.4 µM [falling, single point].

Consider `O=C(CC12CC3CC(C1)CC(CC(=O)N1CCCC1)(C3)C2)N1CCCC1`, for which the cell number change was -14.4%. Consider `NCCOc1ccc(C23CC4CC(CC(C4)C2)C3)cc1`, for which the cell number change is -34.7%. Moreover, the AC50 under setting [1] is 13 µM [falling, single point].

Take `CCOc1ccc(CN2CCN(Cc3cnc(-c4ccccc4)s3)CC2CCO)cc1` (stereo not given): the cell number change was -31.7%. Besides, the concentration at half-maximal activity (AC50) under setting [1] was 2.59 µM [falling, partial curve, poor fit]. Moreover, under setting [2], the AC50 was 3.26 µM [falling, partial curve].

For the compound `Cc1ccccc1NC(=O)c1cnn(-c2ccccc2)c1C`, the cell number change is -1.4%. For the same compound, the AC50 under setting [2] is 29.1 µM [rising, single point]. Take `O=S(=O)(Nc1nc2ccccc2nc1Cl)c1ccc(Cl)cc1`: the cell number change was 8.55%. Also, the concentration at half-maximal activity (AC50) under setting [2] was 0.146 µM [falling, full curve, poor fit]. For the compound `Cc1ccc(C2=NN(C(=O)CSc3nccn3C)C(c3ccco3)C2)cc1` (stereo not given), the cell number change was -2.48%. Also, under setting [1], the AC50 was 0.731 µM [rising, full curve, poor fit]. Further, the concentration at half-maximal activity (AC50) under setting [2] was 0.58 µM [rising, single point]. Take `CCN(CC)S(=O)(=O)c1ccc(/C=C/C(=O)OCC(=O)Nc2ccc(C(N)=O)cc2)cc1`: the cell number change was found to be 20.9%. Also, the AC50 under setting [1] is 0.517 µM [rising, single point]. As to `CC(C)(C)C(=O)NNC(=O)COc1ccc2ccccc2c1Br`, the cell number change was -6.35%. For `COCC(=O)N(C)CC1CCCN(CCc2ccccc2OC)C1` (stereo not given), the cell number change is 11.9%. Also, the AC50 under setting [2] was 0.082 µM [falling, full curve, poor fit]. For the compound `O=c1cc(-c2ccco2)nc(-c2cccs2)o1`, the cell number change was 8.13%. Moreover, the AC50 under setting [2] was 0.0326 µM [falling, partial curve, poor fit]. As to `O=c1c2ccccc2ncn1-c1ccccc1[N+](=O)[O-]`, the cell number change is -4.42%. Moreover, the AC50 under setting [2] was 0.58 µM [falling, single point].

Consider `CC(C)Cc1ccccc1S(N)(=O)=O`, for which the cell number change came to 14.1%. Under setting [2], the AC50 was 29.1 µM [rising, single point].

In the case of `O=[N+]([O-])c1ccc(N2CCN(c3ccc([N+](=O)[O-])cc3CO)CC2)c(CO)c1`, the cell number change was -42.6%. Moreover, the AC50 under setting [1] was 32.6 µM [falling, single point]. As to `Cn1cnc([N+](=O)[O-])c1Cl`, the cell number change was -10.6%. Besides, under setting [1], the half-maximal activity concentration (AC50) is 0.0259 µM [falling, full curve, poor fit]. Also, the AC50 under setting [2] is 3.26 µM [falling, full curve]. `Cc1ccc(C)c(OCCC(=O)OCC(=O)NCc2ccccc2)c1`: the cell number change is -20.5%. Moreover, the AC50 under setting [1] was 0.116 µM [falling, full curve, poor fit]. Turning to `Cc1ccc(CC(=O)CCc2ccccc2)cc1`, the cell number change is 4.95%. Moreover, under setting [2], the half-maximal activity concentration (AC50) is 0.58 µM [rising, single point]. Regarding `CCOC(=O)C1C(=O)C=C(/C=C/c2ccccc2)CC1c1ccc(Cl)cc1` (stereo not given), the cell number change is -38.8%. Under setting [1], the half-maximal activity concentration (AC50) was 16.4 µM [falling, single point]. On to `Cc1ccc(CNCC(O)(c2ccccc2)c2ccc(Cl)cc2)cc1` (stereo not given), for which the cell number change is -42.8%. For the same compound, the AC50 under setting [1] was 1.16 µM [falling, full curve, poor fit]. On to `COc1ccc(N2C(=O)CCC(C(=O)Nc3cccc(C)n3)C2c2ccc(OC)c(OC)c2)cc1` (stereo not given), for which the AC50 under setting [1] was 4.61 µM [falling, single point]. As to `CCOC(=O)c1ccccc1NC(=O)CC1SC(=NC)N(C)C1=O` (stereo not given), the cell number change stood at 27.5%. Moreover, under setting [2], the AC50 is 2.31 µM [rising, partial curve]. As to `CCN(CC)S(=O)(=O)c1cccc(C(=O)OCC(=O)Nc2ccc3c(c2)c2ccccc2n3CC)c1`, the cell number change is 19.4%. Also, under setting [2], the AC50 is 5.8 µM [rising, single point]. As for `CC(C)Cc1nnc(NC(=O)CCC(=O)NC2CC2)s1`, the cell number change is -11.6%. Also, the concentration at half-maximal activity (AC50) under setting [2] was 0.517 µM [falling, full curve, poor fit]. For the compound `CCOC(=O)c1csc(NC(=O)CSc2nnnn2-c2ccc(OC)c(OC)c2)n1`, the cell number change was -13.3%. Moreover, under setting [2], the half-maximal activity concentration (AC50) is 18.4 µM [falling, partial curve]. Turning to `CCOC(=O)[C@@H]1[C@H]2COc3ccccc3[C@H]2N2C(=O)N(c3cccc(F)c3)C(=O)[C@]12C`, the cell number change was 19.2%. For the same compound, the AC50 under setting [2] is 29.1 µM [rising, single point]. Take `O=C(O)COCC(=O)NCc1nc(-c2ccc(C(F)(F)F)cc2)no1`: the cell number change is -30.2%. In addition, the AC50 under setting [1] is 29.1 µM [falling, single point]. `CCOC(=O)N1CCN(C(=O)c2ccc(OC)c(S(=O)(=O)N3CCOCC3)c2)CC1`: under setting [2], the AC50 is 0.00651 µM [falling, full curve, poor fit]. Regarding `COCCNC(=O)C(c1ccc(Cl)cc1)N(CCOC)C(=O)CCC(=O)Nc1ccccn1` (stereo not given), the cell number change is -1.28%.

Take `Cc1ccc(C)c(SCC(=O)Nc2ccc(C)c(S(=O)(=O)N3CCOCC3)c2)c1`: the cell number change is -3.22%. On to `COC(=O)c1nn(-c2ccc(C)cc2)ccc1=O`, for which the cell number change is -60.3%. On the same count and under the same terms, under `Cc1c(C#N)c2ccccc2n1C` stands -3.19%; under `CC(=O)Nc1ccc(S(=O)(=O)NCCC(=O)OCC(=O)N2CCN(C(=O)c3ccco3)CC2)cc1`, 12.3%; under `O=C(NN=C1CCCC1)c1ccccc1OCCOc1ccccc1`, 19.1%. For `O=C(CSc1nnc(-c2ccco2)o1)NC1CCCCCC1`, the cell number change was determined as 6.72%. For the same compound, the AC50 under setting [2] was 2.06 µM [falling, partial curve]. Turning to `COc1ccc(OC)c(C2C(C(=O)Nc3nc4ccccc4s3)=C(C)NC3=C2C(=O)CCC3)c1` (stereo not given), the cell number change was -24%. Moreover, the concentration at half-maximal activity (AC50) under setting [2] is 29.1 µM [falling, single point].

As to `CCC(=O)c1ccc(OCC(=O)N2CCN(C(=O)c3ccccc3)CC2)cc1`, the cell number change is 4.96%. The half-maximal activity concentration (AC50) under setting [2] was 14.6 µM [rising, partial curve]. Take `COc1ccc(Br)c(C(=O)NCCC(C)C)c1`: the cell number change turned out to be 9%. Moreover, the AC50 under setting [2] is 10.3 µM [rising, partial curve]. Take `COc1cc(C)c(NC(=O)COc2ccc3c(c2)OCO3)cc1C`: the cell number change was 23.9%. The same measure, in the same setting: to `COc1ccccc1C(=O)NC(=O)COC(=O)CCS(=O)(=O)c1ccc(C)cc1` belongs -7.8%. For the compound `Cc1sc2ncnc(SCC(=O)Nc3ncccc3O)c2c1C`, the cell number change is 2.27%. The AC50 under setting [2] is 4.11 µM [rising, single point]. Consider `COc1cccc(CNC(=O)c2cccc(NC(=O)CC3SC(N4CCCCC4)=NC3=O)c2)c1` (stereo not given), for which the cell number change was found to be 7.46%. Also, under setting [2], the AC50 was 0.731 µM [rising, single point]. In the case of `CCOC(=O)c1cn(CC)c2cc(F)c(F)cc2c1=O`, the cell number change stood at 6.55%. The AC50 under setting [2] was 10.3 µM [rising, partial curve, poor fit]. For `COC(CNC(=O)CCc1c(C)nc2c(-c3ccc(F)cc3)c(C)nn2c1C)OC`, the cell number change turned out to be 40.9%. Besides, the AC50 under setting [1] was 4.61 µM [rising, full curve]. Under setting [2], the AC50 is 3.66 µM [rising, partial curve]. Consider `CC(C)NC1CS(=O)(=O)CC1O` (stereo not given), for which the cell number change was -43.1%. Also, the AC50 under setting [1] was 29.1 µM [falling, single point]. With `Cc1nn2c(=O)cc(CSc3ccccc3NC(=O)c3ccccc3)nc2s1`, the cell number change was 27.1%. The AC50 under setting [1] was 3.66 µM [falling, single point]. Further, the concentration at half-maximal activity (AC50) under setting [2] is 0.259 µM [falling, full curve].

Turning to `Cc1ccc(NCC(=O)N/N=C/c2cc3ccccc3nc2Cl)cc1`, the cell number change is -37%. Also, the AC50 under setting [1] is 8.2 µM [falling, partial curve]. The AC50 under setting [2] is 13 µM [falling, partial curve]. As to `CC1(C)Cc2nc3oc4c(=O)n(CC(=O)Nc5cccc(Cl)c5)cnc4c3cc2CO1`, the cell number change is -6.97%. In addition, the half-maximal activity concentration (AC50) under setting [2] was 0.92 µM [falling, partial curve]. Regarding `NC(=O)c1ccc(CN2CCc3ccccc3C2)cc1`, the cell number change is -7.41%. The AC50 under setting [2] was 6.51 µM [falling, single point]. Turning to `CCOc1ccccc1NC(=O)CSc1nnnn1-c1ccc(C(=O)OC)cc1`, the cell number change was 17.3%. Besides, under setting [2], the AC50 was 10.3 µM [rising, partial curve]. On to `FCCCOc1ccc(/C=N/OCc2ccc(Cl)cc2)cc1`, for which the cell number change came to 31.6%. Besides, the AC50 under setting [1] is 32.6 µM [rising, single point]. For the same compound, under setting [2], the AC50 was 1.84 µM [rising, partial curve, poor fit]. On to `Cc1cccc(C(=O)NC(C(=O)Nc2nc(-c3ccccn3)cs2)C(C)C)c1` (stereo not given), for which the cell number change amounted to 10.7%. The AC50 under setting [1] was 3.26 µM [rising, single point]. In addition, under setting [2], the AC50 is 0.0291 µM [rising, full curve, poor fit]. As for `Cc1cccc(N/N=C(\C#N)S(=O)(=O)C(C)(C)C)c1`, the cell number change stood at 18.1%. For the compound `O=C1OCC=C1NNC(=O)c1cccnc1`, the cell number change was -19.7%. For the same compound, the AC50 under setting [2] is 6.51 µM [rising, partial curve, poor fit]. For the compound `CCOc1ccc(NC(=O)NCCN2CCN(c3cccc(C)c3C)CC2)cc1`, the cell number change was -4.5%. Further, the AC50 under setting [2] was 3.26 µM [rising, full curve]. On to `Cc1ccc(NC(=O)C(=O)NCCCN2CCOCC2)c(C)c1`, for which the cell number change amounted to 15.7%. In addition, under setting [2], the AC50 was 11.6 µM [rising, single point].

With `Cc1cccc2sc(N(CCCN(C)C)C(=O)c3nc4ccccc4s3)nc12`, the cell number change came out at 11.2%. Further, the AC50 under setting [2] was 0.651 µM [falling, partial curve, poor fit]. Take `Cc1ccccc1-c1ccccc1N`: the cell number change was -25.3%. In addition, the AC50 under setting [2] was 1.16 µM [falling, full curve].

As for `Cc1cc(C)c(NC(=O)CCCC(=O)O)c(Cl)c1`, the cell number change amounted to 22%. Under setting [2], the AC50 is 29.1 µM [falling, single point]. As for `CN(NC(=O)c1ccccc1)c1nc2ccccc2nc1C(F)(F)F`, the cell number change was -13.1%. The AC50 under setting [1] was 1.03 µM [rising, partial curve]. Also, the AC50 under setting [2] is 0.731 µM [rising, partial curve].
